These are yes or no findings as the source states them, for the method shown. Binding seen in cells or lysates may run through a third protein.
Biological target: human SOD1 G85R expressed in transgenic mouse spinal cord (human) (UniProt P00441)
Assay: co-IP; immunoprecipitation from synaptosomal preparations of SOD1^G85R transgenic mouse spinal cord tissues; which protein was precipitated not given

The chains behind the UniProt entries cited, without tags or fusion partners. Where a name states a change or a piece, a line headed by the entry shows the natural chain unless it says otherwise. A line that says so, or that is headed by a name, gives the form on record, which may keep a tag or linker.
UniProt P00441: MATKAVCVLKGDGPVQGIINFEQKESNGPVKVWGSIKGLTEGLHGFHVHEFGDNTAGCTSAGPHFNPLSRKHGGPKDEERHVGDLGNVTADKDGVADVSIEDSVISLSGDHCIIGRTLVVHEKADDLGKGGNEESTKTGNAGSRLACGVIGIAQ
human SOD1 G85R expressed in transgenic mouse spinal cord (P00441, form named): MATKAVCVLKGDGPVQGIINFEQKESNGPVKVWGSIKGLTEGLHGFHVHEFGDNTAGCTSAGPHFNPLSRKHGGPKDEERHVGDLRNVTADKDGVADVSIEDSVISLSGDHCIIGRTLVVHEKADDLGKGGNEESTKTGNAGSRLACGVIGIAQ
UniProt Q3UHJ0: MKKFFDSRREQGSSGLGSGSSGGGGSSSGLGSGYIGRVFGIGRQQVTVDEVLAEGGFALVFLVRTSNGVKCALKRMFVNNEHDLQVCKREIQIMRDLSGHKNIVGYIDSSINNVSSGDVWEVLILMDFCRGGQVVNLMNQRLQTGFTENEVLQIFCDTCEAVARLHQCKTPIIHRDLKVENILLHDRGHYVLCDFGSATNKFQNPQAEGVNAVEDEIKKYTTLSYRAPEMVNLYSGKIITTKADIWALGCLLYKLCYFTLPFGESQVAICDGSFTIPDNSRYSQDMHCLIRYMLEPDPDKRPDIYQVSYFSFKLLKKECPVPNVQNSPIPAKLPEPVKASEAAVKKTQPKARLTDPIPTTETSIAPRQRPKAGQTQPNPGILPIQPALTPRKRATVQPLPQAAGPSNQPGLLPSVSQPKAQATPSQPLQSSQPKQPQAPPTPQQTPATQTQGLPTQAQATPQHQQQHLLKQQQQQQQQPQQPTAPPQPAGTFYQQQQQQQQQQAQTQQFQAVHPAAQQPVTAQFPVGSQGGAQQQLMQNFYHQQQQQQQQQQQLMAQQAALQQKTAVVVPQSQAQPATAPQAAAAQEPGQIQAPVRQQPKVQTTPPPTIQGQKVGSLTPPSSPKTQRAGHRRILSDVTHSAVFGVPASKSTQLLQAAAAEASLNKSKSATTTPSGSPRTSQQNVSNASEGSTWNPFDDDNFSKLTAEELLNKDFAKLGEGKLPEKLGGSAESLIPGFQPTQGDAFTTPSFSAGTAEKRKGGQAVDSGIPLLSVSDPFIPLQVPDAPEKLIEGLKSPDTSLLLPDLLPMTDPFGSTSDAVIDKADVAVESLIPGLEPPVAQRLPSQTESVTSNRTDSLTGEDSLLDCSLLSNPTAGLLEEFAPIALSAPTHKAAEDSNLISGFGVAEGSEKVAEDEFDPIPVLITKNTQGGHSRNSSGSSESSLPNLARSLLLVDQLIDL

binding: no binding
Substance: AAK1, endogenous in mouse spinal cord (from UniProt Q3UHJ0 1-959) (enzyme)

Reference: paper PMC4284746
